Results reported in patent publication US20240173341A1, “COMPOSITION FOR AMELIORATING OR TREATING DEMENTIA CONTAINING 2'-FUCOSYLLACTOSE” (Advanced Protein Technologies Corp., priority 2022, published 2024).

Test system: amyloid beta accumulated in mouse brain tissue
Assay: Amyloid beta accumulation analysis (thioflavin staining of cleared brain tissue)
Type: in vivo
Settings: Donepezil group, 5×FAD mice
Method: The experimental animals used herein were 24-week-old 5×FAD (Aβ plaques) Alzheimer's models. The experimental animals were raised at a temperature of 22±3° C., at a relative humidity of 30±10%, and at an illuminance of 150 to 300 Lux for a lighting period of 12 hours (08:00˜20:00), and five or less animals were raised in each polycarbonate cage.
The term “dementia group” refers to 5×FAD mice administered distilled water, and the term “normal group” refers to wild-type mice administered distilled water.
For the amyloid beta accumulated in mouse brain tissue, brain tissue over 1 mm in size was made transparent using a tissue transparency technique, stained with thioflavin, imaged in three dimensions, and then quantified as plaques for each brain region using the Imaris program.
In addition, three 1 mm-thick brain tissues were collected from each group, the volumes thereof were measured, and the total number of accumulated amyloid beta was measured.

Work on `COc1cc2c(cc1OC)C(=O)C(CC1CCN(Cc3ccccc3)CC1)C2` (centres unmarked) [Donepezil, donepezil, reference compound] yielded an Ab number (1st brain tissue) of 20000, an Ab number/volume (1st brain tissue) of 7547 and an Ab number (2nd brain tissue) of 50500. The Ab number/volume (2nd brain tissue) was 18364, the Ab number (3rd brain tissue) was 40500 and the Ab number/volume (3rd brain tissue) was 14945. It also gave an Ab number (Avr. of three brain tissues) of 37000 and an Ab number/volume (Avr. of three brain tissues) of 13618.
